Library screen at single concentrations

Measurements from “University of Dundee, Small-Polar-MMV Screening Library” (2021), ChEMBL document CHEMBL3988442.

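Phenotypic screen: M. tuberculosis growth, cholesterol and DPPC medium, 4 days; the read-out is not stated. Tested at 50 µM. Direction is inferred from retests: higher values go with more growth inhibition. About 69,000 compounds were tested under these conditions; 0.54% (about 370) showed 50% or more at least once.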

Values are the deposited “Percent Effect”, in %.
How 0% and 100% were set is not recorded. Most values in the screen are low, and negative values occur.
The compounds are a random part of those screened.
Two or more numbers in one place are separate tests of the same structure; such repeats can differ widely.

| # | Compound | effect |
|---|---|---|
| 1 | `O=C(NCCC(=O)N1CCCC1)c1nn(-c2ccccc2F)cc1O` | -13.82 |
| 2 | `Cc1csc2ncnc(N3CCC(Cn4cc(C(C)(C)N)nn4)CC3)c12` | -2.538 |
| 3 | `c1ccc(CO[C@H]2CN(c3ncccn3)C[C@@]23CCCO3)cc1` | -1.817 & 3 |
| 4 | `CC(C)c1nc(CC(=O)N2CCN(C)CC2c2ccccc2)cs1` (stereo not given) | -0.3917 |
| 5 | `Cc1c(Br)c(C(=O)NC(C)c2ccccc2)nn1C` (stereo not given) | -10.5 |
| 6 | `CC(C)n1nc2c(cc1=O)CN(c1nc3ccccc3s1)CC2` | 1.435 |
| 7 | `O=C(O)C(F)(F)F.[H][C@]12CCC[C@@]1(COCC1CCOCC1)CN(C(=O)c1ccccn1)C2` | -30.28 |
| 8 | `Cc1nn(C)c(C)c1C(=O)NC(C)CC(=O)c1cccs1` (stereo not given) | 11.38 |
| 9 | `Cc1cc(-c2ccccc2C(=O)O)nc(C2CCCCN2C)n1` (stereo not given) | 10.57 |
| 10 | `CN(C)c1ccc(C(=O)N2CCCN(C3CCCCC3)CC2)cn1` | 6.534 |
| 11 | `NS(=O)(=O)N1CCC(CSc2ccccc2)C1` (stereo not given) | 6.182 |
| 12 | `O=C(COCc1ccccc1)N1CCN(c2ccc(Cl)cn2)CC1` | 4.52 & 8.872 |
| 13 | `CCC(CC)c1cc(C(=O)N2CCN(CC(N)=O)CC2)on1` | 8.738 |
| 14 | `[H][C@]12CN(CC(C)C)C(=O)[C@@]1([H])CN(c1cnccn1)C2` | -12.62 |
| 15 | `Cc1c[nH]nc1C1CN(c2ncccn2)CCO1` (stereo not given) | 0.9395 & 3.868 |
| 16 | `c1cc(CN2CCOC3(CCCC3)C2)no1` | 5.224 |
| 17 | `Cc1noc(C)c1CN1CCn2c(CN3CCN(C)CC3)cnc2C1.O=C(O)C(F)(F)F.O=C(O)C(F)(F)F.O=C(O)C(F)(F)F` | -6.624 |
| 18 | `CS(=O)(=O)c1cc(S(N)(=O)=O)ccc1NCC1CCCO1` (stereo not given) | -15.58 |
| 19 | `CC(C)C(=O)Nc1ccc2c(c1)ncn2CC(=O)NCCN(C)C` | -9.731 |
| 20 | `c1ccc(-n2cnnc2CCCN2CCOCC2)cc1` | -7.007 |
| 21 | `CC(C)CC(=O)NCC(O)c1c(F)cccc1F` (stereo not given) | 4.392 |
| 22 | `CN(C)c1cc(CNC(=O)c2cc(Cl)ccn2)ccn1` | 9.157 |
| 23 | `Cc1cc(C)n(CC2CN(CCOc3cccc(F)c3)CCO2)n1` (stereo not given) | -9.76 |
| 24 | `CC(C)c1nccn1CCCNC(=O)c1ccc(-c2cccnc2)nc1` | -4.97 |
| 25 | `Cc1c[nH]c(CN2CCCCC2CCN(C)C)c(C)c1=O` (stereo not given) | 9.068 |
| 26 | `CN(Cc1cccc(OC(F)(F)F)c1)Cc1cnn(C)c1` | 4.729 |
| 27 | `Cc1[nH]nc2ncc(C(=O)N3CCN(C(C)(C)C)CC3)cc12` | -8.764 |
| 28 | `CC(C)c1noc(CN(Cc2ccc(F)cc2)C2CC2)n1` | 7.289 |
| 29 | `CC(C)CCn1cc(C(=O)NC2CCS(=O)(=O)C2)c2ccccc2c1=O` (stereo not given) | -24.28 |
| 30 | `Cc1nc2c(c(NCCc3nc4c(s3)CCCC4)n1)CCNCC2` | 20.3 |
| 31 | `COc1ccccc1C1(CNCc2cccc(O)c2)CCOCC1` | -14.48 |
| 32 | `Cc1ccccc1N1CCCN(C(=O)CCCS(N)(=O)=O)CC1` | -43.94 |
| 33 | `CC(=O)NCCNC(=O)c1sc(-c2ccc(Cl)s2)nc1C` | -18.46 |
| 34 | `COc1ccc(NC(=O)NC(C)Cn2cccn2)cn1` (stereo not given) | -33.93 |
| 35 | `Cc1cc(CN(C)C2CCCN(Cc3noc(C)n3)C2)on1` (stereo not given) | 5.303 |
| 36 | `COCCN1CCCC2(CCN(c3ncc(Cl)cc3Cl)C2)C1=O` (stereo not given) | 9.03 |
| 37 | `C1CCCN(c2nc(C3CC3)ns2)CC1` | -28.74 |
| 38 | `CCN1CCOCC12CCN(C(=O)C1CCC1)CC2.O=C(O)C(F)(F)F` | -3.691 & -12.33 |
| 39 | `Cc1nc(-c2ccc(S(=O)(=O)N3CCCCC3)cc2)co1` | 2.235 |
| 40 | `Cc1ccccc1C(=O)N1CCOCC1CN(C)C.O=CO` (stereo not given) | 16.49 |
| 41 | `CN(C)[C@H]1CCCCN(C(=O)CCc2csc(N)n2)C1` | -8.468 |
| 42 | `O=C(O)Cc1cnc(-c2c(Cl)cccc2Cl)s1` | -15.01 |
| 43 | `O=C(CN1CCCCCC1)N1CCc2nnc(C3CCCNC3)n2CC1` (stereo not given) | -5.278 |
| 44 | `COCc1cc(NCCc2ccccn2)n2nccc2n1` | -0.8471 |
| 45 | `Cc1ccc(-c2nnc(CN3CCOC(Cn4cccn4)C3)o2)cc1` (stereo not given) | 16.21 |
| 46 | `Cc1cc(N2CCN(CCO)CC2)nc(-c2ccncc2)n1` | -19.02 |
| 47 | `Cc1ccsc1C(=O)N1CCc2ncc(Cn3cccn3)n2CC1` | -24.93 |

The first 6 entries again:

Compound	effect
O=C(NCCC(=O)N1CCCC1)c1nn(-c2ccccc2F)cc1O	-13.82
Cc1csc2ncnc(N3CCC(Cn4cc(C(C)(C)N)nn4)CC3)c12	-2.538
c1ccc(CO[C@H]2CN(c3ncccn3)C[C@@]23CCCO3)cc1	-1.817 & 3
CC(C)c1nc(CC(=O)N2CCN(C)CC2c2ccccc2)cs1 (stereo not given)	-0.3917
Cc1c(Br)c(C(=O)NC(C)c2ccccc2)nn1C (stereo not given)	-10.5
CC(C)n1nc2c(cc1=O)CN(c1nc3ccccc3s1)CC2	1.435